Experimental data as given in article PMC4811774.
These are yes or no findings as the source states them, for the method shown. For some of these results: In cells and extracts the contact can be indirect. Some binding calls cover weakened binding; strength is not graded here.

Chains of the proteins cited; added tags and fusions are not shown.
UniProt O81283: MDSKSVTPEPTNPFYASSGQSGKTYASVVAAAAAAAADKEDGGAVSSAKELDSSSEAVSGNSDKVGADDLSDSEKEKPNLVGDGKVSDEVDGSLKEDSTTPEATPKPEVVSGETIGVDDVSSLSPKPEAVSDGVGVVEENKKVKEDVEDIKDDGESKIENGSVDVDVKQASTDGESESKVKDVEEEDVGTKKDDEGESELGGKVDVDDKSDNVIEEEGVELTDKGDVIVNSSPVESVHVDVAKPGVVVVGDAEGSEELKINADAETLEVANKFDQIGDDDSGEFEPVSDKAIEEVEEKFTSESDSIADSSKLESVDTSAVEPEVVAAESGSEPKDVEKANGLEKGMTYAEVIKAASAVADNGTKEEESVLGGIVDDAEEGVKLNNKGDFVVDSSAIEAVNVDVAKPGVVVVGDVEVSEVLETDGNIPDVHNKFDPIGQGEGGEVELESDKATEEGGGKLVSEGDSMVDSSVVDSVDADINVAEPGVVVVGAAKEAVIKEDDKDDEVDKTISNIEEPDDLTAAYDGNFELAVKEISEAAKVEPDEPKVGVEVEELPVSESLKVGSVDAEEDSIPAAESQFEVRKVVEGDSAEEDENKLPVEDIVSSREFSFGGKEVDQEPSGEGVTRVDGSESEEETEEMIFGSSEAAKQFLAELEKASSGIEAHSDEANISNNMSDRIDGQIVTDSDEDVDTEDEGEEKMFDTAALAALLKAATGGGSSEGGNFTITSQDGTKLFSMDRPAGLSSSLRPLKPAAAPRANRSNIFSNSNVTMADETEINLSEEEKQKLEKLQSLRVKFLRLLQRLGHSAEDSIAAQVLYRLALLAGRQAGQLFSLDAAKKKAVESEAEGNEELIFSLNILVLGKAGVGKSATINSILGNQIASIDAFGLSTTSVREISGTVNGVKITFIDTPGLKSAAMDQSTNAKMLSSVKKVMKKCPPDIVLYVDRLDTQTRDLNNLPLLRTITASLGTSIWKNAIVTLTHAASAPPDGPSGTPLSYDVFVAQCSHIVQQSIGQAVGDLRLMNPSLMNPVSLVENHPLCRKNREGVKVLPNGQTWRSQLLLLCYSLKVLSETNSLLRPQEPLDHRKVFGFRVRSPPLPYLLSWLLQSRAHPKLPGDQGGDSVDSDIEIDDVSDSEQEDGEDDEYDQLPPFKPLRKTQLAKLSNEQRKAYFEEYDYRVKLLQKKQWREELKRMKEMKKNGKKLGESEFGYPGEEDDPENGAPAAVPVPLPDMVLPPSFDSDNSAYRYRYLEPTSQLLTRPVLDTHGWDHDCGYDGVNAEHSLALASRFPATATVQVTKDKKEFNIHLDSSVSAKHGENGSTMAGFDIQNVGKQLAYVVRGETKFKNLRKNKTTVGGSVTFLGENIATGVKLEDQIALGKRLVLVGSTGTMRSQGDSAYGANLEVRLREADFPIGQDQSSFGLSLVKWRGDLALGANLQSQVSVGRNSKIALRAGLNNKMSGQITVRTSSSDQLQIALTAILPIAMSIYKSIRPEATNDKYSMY

Tests used:
[1] = molecular target: T1, Toc33 (Arabidopsis thaliana (endogenous in chloroplasts)) (UniProt O23680); test: native gel or EMSA; 2D blue-native PAGE: chloroplast membranes solubilised in 1% decylmaltoside, 4-12% BN-PAGE at 4°C, then 5-12% SDS-PAGE and immunoblotting; co-migration
T1 sequence: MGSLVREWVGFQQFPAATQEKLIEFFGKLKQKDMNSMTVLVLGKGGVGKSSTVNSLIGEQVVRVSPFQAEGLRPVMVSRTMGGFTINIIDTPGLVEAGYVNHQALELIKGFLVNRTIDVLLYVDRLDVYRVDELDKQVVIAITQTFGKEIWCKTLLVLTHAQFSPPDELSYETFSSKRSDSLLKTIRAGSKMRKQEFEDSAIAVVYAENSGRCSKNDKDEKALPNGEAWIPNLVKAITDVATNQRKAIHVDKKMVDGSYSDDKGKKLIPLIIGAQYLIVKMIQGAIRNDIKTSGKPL

[2] = molecular target: T1, Toc33 (Arabidopsis thaliana (endogenous in chloroplasts)); test: co-IP; immunoaffinity chromatography of detergent-soluble chloroplast membranes from TOC75, TOC75ΔP1#2 and TOC75ΔP1-2#2 plants on anti-atToc33 Sepharose under native conditions; eluates immunoblotted
[3] = molecular target: Toc159 (Arabidopsis thaliana (endogenous in chloroplasts)) (UniProt O81283); test: native gel or EMSA; 2D blue-native PAGE: chloroplast membranes solubilised in 1% decylmaltoside, 4-12% BN-PAGE at 4°C, then 5-12% SDS-PAGE and immunoblotting; co-migration

Q: For “Toc159 (from UniProt O81283 1-1503) (receptor)”, which binding [1] is on record?
A: The binding was “binds”.

Q: What about the binding [2] of the same molecule?
A: Its binding is “binds”.

B1: Toc75 (full-length, native) (protein, UniProt Q9STE8 141-818)
chain: DEEQSPDWDSHGLPANIVVQLNKLSGFKKYKVSDIMFFDRRRQTTIGTEDSFFEMVSIRPGGVYTKAQLQKELETLATCGMFEKVDLEGKTKPDGTLGVTISFAESTWQSADRFRCINVGLMVQSKPIEMDSDMTDKEKLEYYRSLEKDYKRRIDRARPCLLPAPVYGEVMQMLRDQGKVSARLLQRIRDRVQKWYHDEGYACAQVVNFGNLNTKEVVCEVVEGDITQLVIQFQDKLGNVVEGNTQVPVVRRELPKQLRQGYVFNIEAGKKALSNINSLGLFSNIEVNPRPDEKNEGGIIVEIKLKELEQKSAEVSTEWSIVPGRGGAPTLASFQPGGSVTFEHRNLQGLNRSLMGSVTTSNFLNPQDDLSFKLEYVHPYLDGVYNPRNRTFKTSCFNSRKLSPVFTGGPGVEEVPPIWVDRAGVKANITENFTRQSKFTYGLVMEEITTRDESSHIAANGQRLLPSGGISADGPPTTLSGTGVDRMAFLQANITRDNTKFVNGAVVGQRTVFQVDQGLGIGSKFPFFNRHQLTMTKFIQLREVEQGAGKSPPPVLVLHGHYGGCVGDLPSYDAFVLGGPYSVRGYNMGELGAARNIAEVGAEIRIPVKNTHVYAFVEHGNDLGSSKDVKGNPTAVYRRTGQGSSYGAGVKLGLVRAEYAVDHNNGTGALFFRFGERY
Q: What does the source list for B1?
A: binding [1]: binds; binding [3]: binds; binding [2]: binds

B2: Tic110 (protein, UniProt Q8LPR9 52-1016)
chain: SAASSDQLSVSTQAKNPGIHGNKKELTGLQPIVEKMTPPVRLATSAVVLAASLATGYGLGLRLAGSRNIAFGGAAVAGAAGGAVVYALNSAVPEVAAISLHNYVAEFEDPASVTKDDVEKIADRYGVNKGDEAFQAEICDIYCRYVTSVLPTEGQSLKGDEVAKIVKFKNALGIDEPDAAAMHMEIGRRIFRQRLETGEREGDAEQRRAFMRLVYVSALVFGDASSFLLPWKRVLKVTDAQVEIAIRENAKQLYAERLKLVGRDINVENLVDLRKSQLSFKLSDELAEDLFREHTRKVVVENISSALSILKSRTRAAKSLASVVEELEKVLEFNNLLVSLKSHSEADQFARGVGPISLIGDESDFERRMDDLKLLYRAYVTDALSGGRLEENKLVAMSQLRNILGLGKREAEAISVDVTSKSYRKRLANAVSSGDLEAQDSKAKYLQKLCEELHFDAQKAGAIHEEIYRQKLQQCVTDGELSDDNVAALLRLRVMLCIPQQTVDTAHAEICGTIFEKVVRDAISSGVDGYDAETRKSVRKAAHGLRLSRETAMSIASKAVRRVFTNYIRRARAAENRTDSAKELKKMIAFNTLVVTEMVADIKGESSDKAPEEDPVQEKEEDDEDEEWGSLESLRKTRPDKELAEKMGKPGQTEITLKDDLPDRDRIDLYKTYLLYCVTGEVTRIPFGAQITTKRDDSEYLLLNQLGGILGLSSKEIVNIHVGLAEQAFRQQAEVILADGQLTKARVEQLDELQKQVGLPQPQAEKVIKNITTTKMANAIETAVNQGRLNIKQIRELKEANVSLDSMIAVSLREKLFKKTVSDIFSSGTGEFDETEVYQTIPSDLSIDVEKAKRVVHDLAQSRLSNSLVQAVALLRQRNSKGVVLSLNDLLACDKAVPAEPMSWEVSEELSDLYAIYSKSDPKPAPEKVLRLQYLLGIDDSTATALREMEDGALSSAAEEGNFVF
Q: Which binding [2] does the source give for B2 here?
A: The binding was “binds”.

B3: OEP80 (protein, UniProt Q9C5J8 1-732)
chain: MHCHNDDVRFSSSSIRIHSPSPKEQHSLLTNLQSCSKTFVSHLSNTRNSLNQMLQSLKNRHTPPPRSVRRPNLPTQMLNSVTQLMIGKSSPISLSLIQSTQFNWSESRDENVETIRGLSSPLLCCASLSLTRPNESTQSVEGKDTVQQQKGHSVSRNAEERVLISEVLVRTKDGEELERKDLEMEALAALKACRANSALTIREVQEDVHRIIESGYFCSCTPVAVDTRDGIRLMFQVEPNQEFRGLVCENANVLPSKFIHEAFRDGFGKVINIKRLEEAITSINGWYMERGLFGIVSDIDTLSGGIVRLQVAEAEVNNISIRFLDRKTGEPTKGKTSPETILRQLTTKKGQVYSMLQGKRDVDTVLAMGIMEDVSIIPQPAGDSGKVDLIMNCVERPSGGFSAGGGISSGITSGPLSGLIGSFAYSHRNLFGRNQKLNVSLERGQIDSIFRINYTDPWIEGDDKRTSRSIMVQNSRTPGNLVHGNQPDNSSLTIGRVTAGVEYSRPFRPKWNGTAGLIFQHAGARDEQGNPIIKDFYSSPLTASGKPHDETMLAKLESIYTGSGDQGSTMFAFNMEQGLPVLPEWLCFNRVTGRARKGIHIGPARFLFSLSGGHVVGKFSPHEAFVIGGTNSVRGYEEGAVGSGRSYVVGSGELSFPVRGPVEGVIFTDYGTDMGSGSTVPGDPAGARLKPGSGYGYGLGVRVDSPLGPLRLEYAFNDQHAGRFHFGVGLRN
Q: For B3, which binding [2] is on record?
A: Its binding is “no binding”.
